Structures can show the parent of a compound that is named as a salt. ± gives the uncertainty stated by the source. Some of the results follow. Part of the spread comes from offsets between plates or batches.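 A heat-shock-induced fluorescent stripe was set in larval rod outer segments at 6 dpf. Shedding distance ran from stripe to outer segment tip, measured by confocal stacks in about three fish per compound. Controls: 0.2% DMSO vehicle. Flagged compounds showed ≥20% change from same-week control, p < 0.001 (Dunnett test on mixed-effects models).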
How the values were obtained:
[1] = system: Danio rerio larva rod photoreceptor outer segment; experiment: rod outer segment growth distance Dg, difference from same-week DMSO control mean; higher = more outer segment growth; settings: 20 µM; treatment time: 4 days (6-10 dpf)
[2] = system: Danio rerio larva rod photoreceptor outer segment; experiment: rod outer segment shedding distance Ds, difference from same-week DMSO control mean; higher = less outer segment shedding; settings: 20 µM; treatment time: 4 days (6-10 dpf)

| SMILES | rod outer segment growth distance Dg [1] [um] | rod outer segment shedding distance Ds [2] [um] |
| --- | --- | --- |
| COc1ccc(C2=N[C@@H](c3ccc(Cl)cc3)[C@@H](c3ccc(Cl)cc3)N2C(=O)N2CCNC(=O)C2)c(OC(C)C)c1 [Nutlin-3] | -1.02 ± 0.13 | -1.13 ± 0.24 |
| NC[C@H](O)c1ccc(O)c(O)c1 [Noradrenaline bitartrate monohydrate] | -0.27 ± 0.18 | -0.14 ± 0.1 |
| CC(C)NCC(O)c1ccc(NS(C)(=O)=O)cc1 (stereo unspecified) [Sotalol] | 0.73 ± 0.23 | -0.62 ± 0.3 |
| Cc1cc(OCCCS(C)(=O)=O)cc(C)c1-c1cccc(COc2ccc3c(c2)OC[C@H]3CC(=O)O)c1 | -0.57 ± 0.17 | -0.76 ± 0.12 |
| CN(C)C1CCN(C(=O)c2ccc(NC(=O)Nc3ccc(-c4nc(N5CCOCC5)nc(N5CCOCC5)n4)cc3)cc2)CC1 | -1.02 ± 0.19 | -0.02 ± 0.1 |
| CC(C[N+](C)(C)C)OC(N)=O (stereo unspecified) [Bethanechol chloride] | 0.56 ± 0.28 | -0.22 ± 0.38 |
| CCCNC(=O)Nc1ccc(Oc2ncnc3cc(OC)c(OC)cc23)cc1Cl | -0.34 ± 0.18 | 0.27 ± 0.21 |
| CNC(CC(=O)O)C(=O)O [NMDA (N-Methyl-D-aspartic acid)] | -0.85 ± 0.17 | 0.01 ± 0.13 |
| NC(=O)N1c2ccccc2CC(=O)c2ccccc21 [Oxcarbazepine] | -0.93 ± 0.2 | 0.06 ± 0.24 |
| CCN(CC)CCCCNc1ncc2cc(-c3cc(OC)cc(OC)c3)c(NC(=O)NC(C)(C)C)nc2n1 | -0.19 ± 0.23 | -0.44 ± 0.23 |
| C[C@@H]1[C@H](O)[C@@H](C)/C=C/C=C/C=C/C=C/C=C/C=C/C=C/[C@H](O[C@@H]2O[C@H](C)[C@@H](O)[C@H](N)[C@@H]2O)C[C@@H]2O[C@](O)(C[C@@H](O)C[C@@H](O)[C@H](O)CC[C@@H](O)C[C@@H](O)CC(=O)O[C@H]1C)C[C@H](O)[C@H]2C(=O)O [Amphotericin B] | -0.98 ± 0.24 | 0.18 ± 0.2 |
| CC1CCN(CC[C@H]2CCCN2S(=O)(=O)c2cccc(O)c2)CC1 | 0.3 ± 0.16 | -0.26 ± 0.12 |
| CC1=C(/C=C/C(C)=C/C=C/C(C)=C/C=C/C=C(C)/C=C/C=C(C)/C=C/C2=C(C)CCCC2(C)C)C(C)(C)CCC1 [Beta Carotene] | -1.15 ± 0.23 | -0.38 ± 0.18 |
| COc1cc([C@@H]2c3cc4c(cc3[C@@H](O[C@@H]3O[C@@H]5CO[C@@H](c6cccs6)O[C@H]5[C@H](O)[C@H]3O)[C@H]3COC(=O)[C@H]23)OCO4)cc(OC)c1O [Teniposide] | -0.95 ± 0.21 | -0.29 ± 0.13 |
| CCc1cc(Nc2nccc(-c3c(-c4ccc(OC)c(C(=O)Nc5c(F)cccc5F)c4)nc4ccccn34)n2)c(OC)cc1N1CCC(N2CCN(S(C)(=O)=O)CC2)CC1 | -1.34 ± 0.17 | -0.02 ± 0.22 |
| CC(C)[N+]1(C)[C@@H]2CC[C@H]1C[C@@H](OC(=O)C(CO)c1ccccc1)C2 (stereo partly specified) [Ipratropium Bromide] | 0.42 ± 0.17 | 0.76 ± 0.18 |
| CCCCCCCCCCCC1=C(O)C(=O)C=C(O)C1=O [Embelin] | -0.47 ± 0.19 | 0.04 ± 0.13 |
| CC1=C(C(=O)O)N2C(=O)[C@@H](NC(=O)[C@H](N)c3ccccc3)[C@H]2SC1 [Cephalexin] | -0.74 ± 0.24 | 0.53 ± 0.19 |
| O=C(O)CCCc1c[nH]c2ccccc12 [3-Indolebutyric acid (IBA)] | 0.91 ± 0.22 | -0.28 ± 0.33 |
| CO[C@H]1C[C@@H]2CC[C@@H](C)[C@@](O)(O2)C(=O)C(=O)N2CCCC[C@H]2C(=O)O[C@H]([C@H](C)C[C@@H]2CC[C@@H](O)[C@H](OC)C2)CC(=O)[C@H](C)/C=C(\C)[C@@H](O)[C@@H](OC)C(=O)[C@H](C)C[C@H](C)/C=C/C=C/C=C/1C [Rapamycin (Sirolimus)] | -1.23 ± 0.18 | -1.13 ± 0.22 |
| CC(C)[C@H](O)C(=O)N[C@@H](C)C(=O)N[C@@H]1C(=O)N(C)CCc2ccccc21 | 0.44 ± 0.19 | 0.24 ± 0.16 |

Structural class, the compounds so far with a carbonyl joined to an NH by a bond outside any ring.

| SMILES | rod outer segment growth distance Dg [1] [um] | rod outer segment shedding distance Ds [2] [um] |
| --- | --- | --- |
| CN(C)C1CCN(C(=O)c2ccc(NC(=O)Nc3ccc(-c4nc(N5CCOCC5)nc(N5CCOCC5)n4)cc3)cc2)CC1 | -1.02 ± 0.19 | -0.02 ± 0.1 |
| CC(C[N+](C)(C)C)OC(N)=O (stereo unspecified) [Bethanechol chloride] | 0.56 ± 0.28 | -0.22 ± 0.38 |
| CCCNC(=O)Nc1ccc(Oc2ncnc3cc(OC)c(OC)cc23)cc1Cl | -0.34 ± 0.18 | 0.27 ± 0.21 |
| NC(=O)N1c2ccccc2CC(=O)c2ccccc21 [Oxcarbazepine] | -0.93 ± 0.2 | 0.06 ± 0.24 |
| CCN(CC)CCCCNc1ncc2cc(-c3cc(OC)cc(OC)c3)c(NC(=O)NC(C)(C)C)nc2n1 | -0.19 ± 0.23 | -0.44 ± 0.23 |
| CCc1cc(Nc2nccc(-c3c(-c4ccc(OC)c(C(=O)Nc5c(F)cccc5F)c4)nc4ccccn34)n2)c(OC)cc1N1CCC(N2CCN(S(C)(=O)=O)CC2)CC1 | -1.34 ± 0.17 | -0.02 ± 0.22 |
| CC1=C(C(=O)O)N2C(=O)[C@@H](NC(=O)[C@H](N)c3ccccc3)[C@H]2SC1 [Cephalexin] | -0.74 ± 0.24 | 0.53 ± 0.19 |
| CC(C)[C@H](O)C(=O)N[C@@H](C)C(=O)N[C@@H]1C(=O)N(C)CCc2ccccc21 | 0.44 ± 0.19 | 0.24 ± 0.16 |

Carrying on:

| SMILES | rod outer segment growth distance Dg [1] [um] | rod outer segment shedding distance Ds [2] [um] |
| --- | --- | --- |
| Nc1ccn([C@@H]2O[C@H](CO)[C@@H](O)[C@@H]2O)c(=O)n1 [Cytarabine] | -0.6 ± 0.26 | -0.26 ± 0.2 |
| COc1cc(C(C)=O)ccc1O [Apocynin] | -0.03 ± 0.29 | -0.26 ± 0.32 |
| COc1ccc(Cn2ccc3ccc(C(=O)NO)cc32)cc1 | 0.81 ± 0.48 | -1.55 ± 0.37 |
| CC(=O)OCC(=O)[C@@]1(O)CC[C@H]2[C@@H]3CCC4=CC(=O)CC[C@]4(C)[C@H]3C(=O)C[C@@]21C [Cortisone acetate] | -1.52 ± 0.22 | -0.4 ± 0.14 |
| C[C@]12CCC(=O)C=C1CC[C@@H]1[C@@H]2[C@@H](O)C[C@@]2(C)[C@H]1CC[C@]2(O)C(=O)CO [Hydrocortisone] | 0.24 ± 0.29 | 0.27 ± 0.15 |
| OCCn1cc(-c2ccc3c(c2)CC/C3=N\O)c(-c2ccncc2)n1 | -0.99 ± 0.16 | -1.31 ± 0.22 |
| COc1cc(N2CCC(N(C)C)CC2)ccc1Nc1ncc(Cl)c(Nc2ccccc2P(C)(C)=O)n1 | 0.28 ± 0.16 | -0.07 ± 0.14 |
| COC(=O)N[C@H](C(=O)N[C@@H](Cc1ccccc1)[C@@H](O)CN(Cc1ccc(-c2ccccn2)cc1)NC(=O)[C@@H](NC(=O)OC)C(C)(C)C)C(C)(C)C [Atazanavir Sulfate] | 0.08 ± 0.18 | -0.53 ± 0.18 |
| COc1ccc(C2CC(=O)c3c(O)cc(OC4OC(COC5OC(C)C(O)C(O)C5O)C(O)C(O)C4O)cc3O2)cc1OC (stereo unspecified) [Methyl-Hesperidin] | -0.29 ± 0.26 | 0.55 ± 0.32 |
| Cc1ncc([N+](=O)[O-])n1CC(C)O (stereo unspecified) [Secnidazole] | -0.17 ± 0.21 | 0.14 ± 0.2 |
| c1ccc2c(CC3=NCCN3)cccc2c1 [Naphazoline HCl] | -0.26 ± 0.23 | 0.26 ± 0.31 |
| O=C(c1ccc(/C=C/c2n[nH]c3ccccc23)cc1)N1CCNCC1 | -1.42 ± 0.28 | 0.69 ± 0.24 |
| COC(=O)/C=C/C(=O)OC [Dimethyl Fumarate] | 0.29 ± 0.28 | -0.28 ± 0.16 |
| CC(=O)[C@H]1CC[C@H]2[C@@H]3CC=C4C[C@@H](O)CC[C@]4(C)[C@H]3CC[C@]12C [Pregnenolone] | -1.1 ± 0.24 | 0.03 ± 0.28 |
| NC(CO)C(=O)NNCc1ccc(O)c(O)c1O (stereo unspecified) [Benserazide HCl] | 0.38 ± 0.25 | -0.02 ± 0.28 |
| OC[C@@H](O)[C@@H](O)[C@@H](O)CO [Ribitol] | -0.36 ± 0.18 | -0.24 ± 0.099 |
| CC(C)C(=O)Oc1ccc(CO)cc1[C@H](CCN(C(C)C)C(C)C)c1ccccc1 [Fesoterodine Fumarate] | 0.33 ± 0.27 | 0 ± 0.28 |
| CC(=O)O[C@H]1C(=O)[C@@]2(C)[C@H]([C@H](OC(=O)c3ccccc3)[C@]3(O)C[C@H](OC(=O)[C@H](O)[C@@H](NC(=O)c4ccccc4)c4ccccc4)C(C)=C1C3(C)C)[C@]1(OC(C)=O)CO[C@@H]1C[C@@H]2O [Paclitaxel] | 0.22 ± 0.29 | 0.2 ± 0.23 |
| CC1(C)[C@H](C(=O)O)N2C(=O)C[C@H]2S1(=O)=O [Sulbactam sodium] | 0.75 ± 0.26 | -0.43 ± 0.16 |
| COc1ccccc1Oc1c(NS(=O)(=O)c2ccc(C(C)(C)C)cc2)nc(-c2ncccn2)nc1OCCO [Bosentan Hydrate] | 0.72 ± 0.12 | -0.25 ± 0.12 |
| COc1ccccc1OCC(O)CN1CCN(CC(=O)Nc2c(C)cccc2C)CC1 (stereo unspecified) [Ranolazine 2HCl] | 0.74 ± 0.16 | -0.06 ± 0.19 |

| SMILES | rod outer segment growth distance Dg [1] [um] | rod outer segment shedding distance Ds [2] [um] |
| --- | --- | --- |
| Nc1ccn([C@@H]2O[C@H](CO)[C@@H](O)[C@H]2O)c(=O)n1 [Cytidine] | 0.66 ± 0.25 | -0.6 ± 0.26 |
| COc1cc(/C=C/C(=O)N2CCN(CC(=O)N3CCCC3)CC2)cc(OC)c1OC [Cinepazide maleate] | 1.05 ± 0.15 | -0.03 ± 0.13 |
| CN(C)CCc1c[nH]c2ccc(Cn3cncn3)cc12 [Rizatriptan Benzoate] | 0.32 ± 0.15 | 0.26 ± 0.14 |
| O=C(O)[C@H]1O[C@@H](Oc2cc3oc(-c4ccccc4)cc(=O)c3c(O)c2O)[C@H](O)[C@@H](O)[C@@H]1O [Baicalin] | 1.17 ± 0.21 | 1.22 ± 0.36 |
| CNC(=C[N+](=O)[O-])NCCSCc1csc(CN(C)C)n1 [Nizatidine] | 0.67 ± 0.24 | 0.7 ± 0.3 |
| NS(=O)(=O)c1cc(C(=O)O)c(NCc2ccco2)cc1Cl [Furosemide] | -0.19 ± 0.2 | -0.26 ± 0.14 |
| CCOC(=O)c1c(C)n(C)c2ccc(O)cc12 [Mecarbinate] | 0.59 ± 0.21 | -0.25 ± 0.25 |
| C[C@]12CC[C@@H]3c4ccc(O)cc4CC[C@H]3[C@@H]1CCC2=O [Estrone] | -1.05 ± 0.28 | 0 ± 0.28 |
| C[C@@H](CN1CC(=O)NC(=O)C1)N1CC(=O)NC(=O)C1 [Dexrazoxane HCl (ICRF-187, ADR-529)] | 0.26 ± 0.18 | -0.45 ± 0.2 |
| CC(C(=O)O)c1ccc2c(c1)CC(=O)c1ccccc1S2 (stereo unspecified) [Zaltoprofen] | -0.54 ± 0.2 | 0.2 ± 0.14 |
| CO[C@H]1/C=C/O[C@@]2(C)Oc3c(C)c(O)c4c(O)c(c(/C=N/N5CCN(C6CCCC6)CC5)c(O)c4c3C2=O)NC(=O)/C(C)=C\C=C\[C@H](C)[C@H](O)[C@@H](C)[C@@H](O)[C@@H](C)[C@H](OC(C)=O)[C@@H]1C [Rifapentine] | -0.33 ± 0.2 | -0.53 ± 0.16 |
| Cc1nc(NC(=O)N2CCC[C@H]2C(N)=O)sc1-c1ccnc(C(C)(C)C(F)(F)F)c1 | -0.46 ± 0.2 | -0.22 ± 0.14 |
| Cc1cnc(NC(=O)C2=C(O)c3ccccc3S(=O)(=O)N2C)s1 [Meloxicam] | -0.59 ± 0.23 | 0.18 ± 0.2 |
| C[C@H](Nc1ncnc2nc[nH]c12)c1cc2cccc(Cl)c2c(=O)n1-c1ccccc1 | -0.6 ± 0.17 | 0.07 ± 0.12 |
| CC1(C)CNc2cc(NC(=O)c3cccnc3NCc3ccncc3)ccc21 [Motesanib Diphosphate (AMG-706)] | -0.92 ± 0.2 | -0.31 ± 0.22 |
| Cn1c(=O)c2c(ncn2CC(O)CO)n(C)c1=O (stereo unspecified) [Dyphylline] | 0.09 ± 0.21 | 0.04 ± 0.2 |
| Oc1cc(O)c(Cl)cn1 [Gimeracil] | 0.19 ± 0.23 | -0.67 ± 0.24 |
| C[C@@H](Oc1cc(-n2cnc3ccc(CN4CCN(C)CC4)cc32)sc1C(N)=O)c1ccccc1C(F)(F)F | -1.26 ± 0.34 | -2.19 ± 0.33 |
| CC(C(=O)O)c1ccc(-c2ccccc2)c(F)c1 (stereo unspecified) [Flurbiprofen] | 1.02 ± 0.18 | 0.41 ± 0.17 |
| O=C1N=C(O)NC1(c1ccccc1)c1ccccc1 [Phenytoin sodium] | 0.16 ± 0.2 | 0.1 ± 0.33 |
| C[C@H]1O[C@H](O[C@H]2[C@H](O)[C@@H](O)[C@@H](O[C@@H]([C@H](O)[C@@H](O)C=O)[C@H](O)CO)O[C@@H]2CO)[C@H](O)[C@@H](O)[C@@H]1N[C@H]1C=C(CO)[C@@H](O)[C@H](O)[C@H]1O [Acarbose] | 0.54 ± 0.23 | 0.35 ± 0.23 |

From the supplement of paper PMC6143611
